# In all, about 290,000 compounds went through this assay and about 110 (0.038%) were called active. This list was built around the results that the source calls inconclusive (neither active nor inactive); the mix of calls is not that of the screen. Calls come from the whole dose curve; as a rule, active = well fitted inhibition curve with a large enough effect in the polarisation, with a control signal flat (not every such curve was filed as active); inconclusive = small, poorly fitted or top-dose-only effect, or effect the other way, or a change in a side signal; inactive = no such curve, though single readings can be large or run the other way; the % refers to the polarisation. Potencies of inconclusive entries are doubtful fits and often do not repeat. A note “side channel” means that the fit belongs to a control or component signal, not to the main read-out.
# The chains behind the UniProt entries cited, without tags or fusion partners.
# UniProt Q03164, whole entry, looked up: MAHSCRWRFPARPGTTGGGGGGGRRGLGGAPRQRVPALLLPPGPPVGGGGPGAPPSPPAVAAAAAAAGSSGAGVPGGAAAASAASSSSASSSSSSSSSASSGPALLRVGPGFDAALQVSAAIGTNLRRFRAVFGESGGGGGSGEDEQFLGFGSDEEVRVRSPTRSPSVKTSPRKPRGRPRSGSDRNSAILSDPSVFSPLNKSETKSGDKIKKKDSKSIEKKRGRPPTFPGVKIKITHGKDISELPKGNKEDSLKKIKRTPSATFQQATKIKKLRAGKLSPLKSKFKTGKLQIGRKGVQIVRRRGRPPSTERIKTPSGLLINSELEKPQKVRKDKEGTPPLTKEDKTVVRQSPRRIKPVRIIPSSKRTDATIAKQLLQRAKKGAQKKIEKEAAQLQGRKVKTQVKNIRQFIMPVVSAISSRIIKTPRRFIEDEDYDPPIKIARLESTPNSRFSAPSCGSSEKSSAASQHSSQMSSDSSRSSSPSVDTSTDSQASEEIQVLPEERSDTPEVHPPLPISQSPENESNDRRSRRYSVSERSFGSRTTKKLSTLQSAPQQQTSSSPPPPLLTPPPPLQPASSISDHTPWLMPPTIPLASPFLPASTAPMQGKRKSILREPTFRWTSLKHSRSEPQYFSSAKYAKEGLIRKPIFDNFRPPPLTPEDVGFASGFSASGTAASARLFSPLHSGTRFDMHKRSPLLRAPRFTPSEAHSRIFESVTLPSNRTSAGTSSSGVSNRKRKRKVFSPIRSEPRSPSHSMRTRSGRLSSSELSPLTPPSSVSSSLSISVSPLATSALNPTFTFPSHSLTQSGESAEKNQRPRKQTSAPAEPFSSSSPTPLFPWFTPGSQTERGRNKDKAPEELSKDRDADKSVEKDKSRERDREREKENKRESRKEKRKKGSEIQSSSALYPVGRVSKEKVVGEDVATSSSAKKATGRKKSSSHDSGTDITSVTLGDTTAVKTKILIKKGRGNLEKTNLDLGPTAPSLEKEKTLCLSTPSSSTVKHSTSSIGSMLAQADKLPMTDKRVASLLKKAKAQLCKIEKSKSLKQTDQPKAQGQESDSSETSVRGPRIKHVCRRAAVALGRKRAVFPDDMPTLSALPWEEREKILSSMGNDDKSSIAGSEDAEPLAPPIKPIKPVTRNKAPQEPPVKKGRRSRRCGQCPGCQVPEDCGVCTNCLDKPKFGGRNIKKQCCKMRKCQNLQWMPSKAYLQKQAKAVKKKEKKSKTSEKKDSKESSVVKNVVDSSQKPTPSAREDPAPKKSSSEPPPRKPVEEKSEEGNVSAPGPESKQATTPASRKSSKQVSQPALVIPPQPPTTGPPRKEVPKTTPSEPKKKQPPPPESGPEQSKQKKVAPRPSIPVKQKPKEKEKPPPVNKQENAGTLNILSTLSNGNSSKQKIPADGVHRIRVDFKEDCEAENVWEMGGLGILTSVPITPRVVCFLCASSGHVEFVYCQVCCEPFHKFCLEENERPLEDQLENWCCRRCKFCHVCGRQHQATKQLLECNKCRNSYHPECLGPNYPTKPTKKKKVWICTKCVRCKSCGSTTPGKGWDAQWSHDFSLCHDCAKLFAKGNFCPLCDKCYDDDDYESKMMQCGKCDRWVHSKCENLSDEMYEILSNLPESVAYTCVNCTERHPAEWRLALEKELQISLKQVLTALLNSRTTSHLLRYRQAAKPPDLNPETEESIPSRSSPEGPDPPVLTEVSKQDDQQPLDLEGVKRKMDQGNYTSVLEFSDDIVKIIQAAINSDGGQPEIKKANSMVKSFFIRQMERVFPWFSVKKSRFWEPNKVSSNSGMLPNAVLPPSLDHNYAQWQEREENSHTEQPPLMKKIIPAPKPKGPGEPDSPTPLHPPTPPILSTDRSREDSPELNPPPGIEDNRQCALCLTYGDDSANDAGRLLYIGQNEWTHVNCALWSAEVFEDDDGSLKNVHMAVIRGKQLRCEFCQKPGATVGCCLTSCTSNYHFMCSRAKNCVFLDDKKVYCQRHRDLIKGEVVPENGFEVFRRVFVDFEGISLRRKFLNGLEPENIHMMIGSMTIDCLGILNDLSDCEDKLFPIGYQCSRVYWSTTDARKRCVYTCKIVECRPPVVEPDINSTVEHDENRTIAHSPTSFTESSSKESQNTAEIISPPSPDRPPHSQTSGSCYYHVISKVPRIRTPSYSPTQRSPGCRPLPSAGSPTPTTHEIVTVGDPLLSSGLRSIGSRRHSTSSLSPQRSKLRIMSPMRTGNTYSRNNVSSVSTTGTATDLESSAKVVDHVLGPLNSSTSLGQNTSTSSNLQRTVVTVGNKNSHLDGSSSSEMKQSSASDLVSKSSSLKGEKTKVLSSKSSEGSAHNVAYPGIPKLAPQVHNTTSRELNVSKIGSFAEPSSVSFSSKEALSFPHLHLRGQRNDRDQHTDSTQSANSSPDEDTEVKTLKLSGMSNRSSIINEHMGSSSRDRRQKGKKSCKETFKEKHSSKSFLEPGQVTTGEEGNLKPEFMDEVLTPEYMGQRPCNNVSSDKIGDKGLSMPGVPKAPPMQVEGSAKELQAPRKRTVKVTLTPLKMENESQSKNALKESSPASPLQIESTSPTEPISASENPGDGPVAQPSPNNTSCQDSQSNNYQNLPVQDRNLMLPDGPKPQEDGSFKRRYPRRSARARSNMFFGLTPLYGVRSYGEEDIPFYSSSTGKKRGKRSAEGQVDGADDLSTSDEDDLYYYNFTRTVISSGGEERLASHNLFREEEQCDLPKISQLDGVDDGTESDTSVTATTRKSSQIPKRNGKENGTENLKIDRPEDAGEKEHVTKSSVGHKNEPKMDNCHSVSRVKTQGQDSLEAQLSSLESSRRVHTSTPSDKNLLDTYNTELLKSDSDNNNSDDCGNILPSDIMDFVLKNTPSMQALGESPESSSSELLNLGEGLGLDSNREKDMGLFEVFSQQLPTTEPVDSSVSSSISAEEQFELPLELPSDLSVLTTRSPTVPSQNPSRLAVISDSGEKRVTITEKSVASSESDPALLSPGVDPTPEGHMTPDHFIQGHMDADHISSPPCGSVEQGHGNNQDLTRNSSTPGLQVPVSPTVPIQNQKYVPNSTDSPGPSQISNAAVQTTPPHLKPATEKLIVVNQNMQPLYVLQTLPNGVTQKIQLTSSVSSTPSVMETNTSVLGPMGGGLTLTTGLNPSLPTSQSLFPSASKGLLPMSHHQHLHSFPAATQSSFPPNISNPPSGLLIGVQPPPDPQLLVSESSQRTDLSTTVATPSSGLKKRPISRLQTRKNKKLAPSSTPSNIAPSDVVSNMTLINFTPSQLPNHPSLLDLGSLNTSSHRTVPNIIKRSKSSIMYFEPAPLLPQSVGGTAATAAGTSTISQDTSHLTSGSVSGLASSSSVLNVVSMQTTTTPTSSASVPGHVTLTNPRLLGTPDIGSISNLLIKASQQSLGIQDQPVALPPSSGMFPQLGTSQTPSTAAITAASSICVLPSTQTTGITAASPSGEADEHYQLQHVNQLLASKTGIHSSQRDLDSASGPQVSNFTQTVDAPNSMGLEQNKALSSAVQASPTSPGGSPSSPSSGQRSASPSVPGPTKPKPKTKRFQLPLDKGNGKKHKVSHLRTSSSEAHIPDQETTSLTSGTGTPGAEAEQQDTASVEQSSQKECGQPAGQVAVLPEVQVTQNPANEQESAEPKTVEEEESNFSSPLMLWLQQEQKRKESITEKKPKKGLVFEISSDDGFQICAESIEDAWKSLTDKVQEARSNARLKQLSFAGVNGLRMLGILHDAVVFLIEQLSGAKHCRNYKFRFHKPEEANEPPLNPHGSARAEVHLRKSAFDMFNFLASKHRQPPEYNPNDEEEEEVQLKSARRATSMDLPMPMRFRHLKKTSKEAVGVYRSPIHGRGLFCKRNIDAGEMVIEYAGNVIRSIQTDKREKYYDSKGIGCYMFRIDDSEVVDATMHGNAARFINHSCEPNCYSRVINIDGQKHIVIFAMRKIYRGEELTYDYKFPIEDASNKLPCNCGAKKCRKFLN
# Molecular target: Histone-lysine N-methyltransferase 2A (Homo sapiens) (UniProt Q03164)
# Assay: qHTS Fluorescence Polarization Assay for Inhibitors of MLL CXXC domain - DNA interaction
# Settings: MLL-CXXC / FITC-HOXA9 DNA fluorescence polarization; series mostly up to 115 µM
# From the text: NIH Chemical Genomics Center [NCGC] NIH Molecular Libraries Probe Production centers Network [MLPCN] MLPCN Grant: DA027717-01A1 Assay Submitter (PI): John Bushweller NCGC Assay Overview: The MLL (Mixed Lineage Luekemia) gene is involved in chromosomal translocation that results in either acute lymphoid leukemia (ALL) or acute myeloid leukemia (AML). Chromasomal translocation of MLL gene is responsible for the fusion of N-terminal MLL to more than 60 different partner genes in frame. Many of the MLL partner genes contain transcription activation domains or function as transcriptional activators. Despite the heterogeneity of fusion partners, the N-terminus of MLL fusion proteins always consists of the N-terminal menin binding motif and the CXXC domain. The MLL-CXXC domain specifically recognizes unmethylated CpG sequences of the HOX-A gene. Disruption of the MLL-CXXC and HOX-A gene interaction leads to down regulation of HOX-A gene expression and may potentially reverse leukemogenesis. We have miniaturized and optimized an in-vitro assay to screen for inhibitors of the MLL-CXXC domain and HOX-A DNA interaction, which could have utility in MLL fusion leukemias.
# The affinity purified MLL-CXXC domain, unlabeled HOX-A9 DNA strand, fluorescein (FLSN) labeled HOX-A9 DNA strand were kindly supplied by the laboratory of Dr. John Bushweller, University of Virginia. All reagents were stored in single use aliquots at -80C. Assay Reagents: Assay buffer: 50 mM TRIS-HCl pH 7.5, 50 mM NaCl, 1 mM DTT. Add 0.05% BSA prior to reaction setup. Assay Procedure: 1.Dispense 1 ul of a 7 uM MLL-CXXC solution prepared in assay buffer into column 1-48. 2.Transfer 23 nl of compounds and unlabeled HOX-A9 per well. 3.Incubate for 5 minutes at ambient. 4.Dispense 1ul of a 50 nM FLSN-HOX-A9 solution prepared in assay buffer into columns 1-48 5.Centrifuge for 30 seconds at 1000 RPM. 6.Incubate for 30 minutes at ambient. 7.Read using the Envision reader fluorescent polarization protocol.
# Potency is the fitted concentration of half-maximal effect.
row,SMILES,Potency
1,O=c1cc(-c2ccc(C3CCCCC3)cc2)[nH][nH]1,"inconclusive: 35.5 µM [quencher, side channel, single point]"
2,CCCNc1c(F)c(F)c2c(C)c3ccccc3nc2c1F,"inconclusive: 39.8 µM [fluorescent, side channel, single point]"
3,COc1cc(N=Nc2c(O)c3ccccc3[nH]c2=O)c(OC)cc1N=Nc1ccccc1,"inconclusive: 63.1 µM [fluorescent, single point]"
4,O=C(O)CN(CC(=O)O)Cc1cc2c(-c3ccccc3C(=O)O)c3cc(CN(CC(=O)O)CC(=O)O)c(=O)cc-3oc2cc1O,"inconclusive: 12.6 µM [fluorescent, side channel, full curve]"
5,CC(=O)Nc1ccc(NC(=O)c2ccccc2S(=O)(=O)c2ccccc2[N+](=O)[O-])cc1,"inconclusive: 17.8 µM [fluorescent, side channel, partial curve]"
6,COc1ccc(NC(=O)Cn2c(=O)n(-c3ccccc3)c(=O)c3sccc32)c(OC)c1,"inconclusive: 70.8 µM [fluorescent, side channel, single point]"
7,Cn1c2ccc(F)cc2c2ncn(CCN3CCOCC3)c(=O)c21,inactive
8,O=C(Nc1ccccc1O)C(c1ccccc1)c1ccccc1,"inconclusive: 56.2 µM [fluorescent, side channel, single point]"
9,O=S(=O)(c1ccc(F)c(F)c1)N1CCCc2ccccc21,"inconclusive: 63.1 µM [inhibitor, single point]"
10,C=CCc1cccc(/C=N/n2cnnc2)c1O,"inconclusive: 31.6 µM [inhibitor, partial curve]"
11,Cc1ccc(/C=N/Nc2ccc3ccccc3n2)o1,"inconclusive: 22.4 µM [fluorescent, side channel, partial curve]"
12,CC1CCN(S(=O)(=O)c2ccc(NC(=O)[C@@H]3CCCC[C@@H]3C(=O)O)cc2)CC1,"inconclusive: 56.2 µM [fluorescent, side channel, single point]"
13,COc1ccc(Br)c(C(=O)N2CCN(S(=O)(=O)/C=C/c3ccccc3)CC2)c1,"inconclusive: 1.41 µM [quencher, side channel, full curve, poor fit]"
14,Nc1nonc1-c1noc(CCCOc2ccc(Cl)cc2Cl)n1,inactive
15,CC(C)N1CC=C2C(C#N)=C(N)C(C#N)(C#N)[C@H](c3ccoc3)[C@H]2C1,"inconclusive: 35.5 µM [fluorescent, side channel, partial curve]"
16,CN(Cc1cn(-c2ccccc2)nc1-c1ccc(Cl)cc1)C(=O)CCC(=O)O,"inconclusive: 14.1 µM [inhibitor, single point]"
17,Oc1ccc(N=Nc2nccs2)c(O)c1,"inconclusive: 20 µM [quencher, side channel, partial curve]"
18,COc1ccc(-c2cc(C(F)F)n3ncc(C(=O)n4ccnc4C)c3n2)cc1,"inconclusive: 2.51 µM [quencher, side channel, full curve]"
19,CN(Cc1ccccc1)S(=O)(=O)c1cccc2cccnc12,inactive
20,COc1cc(OC)cc(C(=O)NC(=S)N2CCCCC2c2cccnc2)c1 (configuration not stated),"inconclusive: 0.891 µM [fluorescent, side channel, full curve, poor fit]"
21,COc1ccc(C(=O)N[C@H](C(=O)N2CCN(c3ccccc3F)CC2)C(C)C)cc1,"inconclusive: 1 µM [inhibitor, full curve, poor fit]"

# Quoted from the listing:
# CC(=O)Nc1ccc(NC(=O)c2ccccc2S(=O)(=O)c2ccccc2[N+](=O)[O-])cc1 – Potency: inconclusive: 17.8 µM [fluorescent, side channel, partial curve]
# Cn1c2ccc(F)cc2c2ncn(CCN3CCOCC3)c(=O)c21 – Potency: inactive
# COc1ccc(Br)c(C(=O)N2CCN(S(=O)(=O)/C=C/c3ccccc3)CC2)c1 – Potency: inconclusive: 1.41 µM [quencher, side channel, full curve, poor fit]

# Continued.

row,SMILES,Potency
1,Cc1ccc(O)c(C(=O)/C=C/c2ccc3c(c2)OCCCO3)c1,"inconclusive: 15.8 µM [fluorescent, side channel, full curve, poor fit]"
2,CCC[n+]1c2ccccc2cc2ccccc21,inactive
3,O=C(Nc1ccc(S(=O)(=O)Nc2ccnn2-c2ccccc2)cc1)C(F)(F)F,"inconclusive: 50.1 µM [fluorescent, side channel, single point]"
4,CC1=NN(c2ccc(C(=O)O)cc2)C(=O)/C1=C/c1ccc(-c2ccccc2F)o1,"inconclusive: 89.1 µM [inhibitor, single point]"
5,CC(C)n1c(SCC(=O)Nc2ccccc2)nc2c1c(=O)[nH]c(=O)n2C,inactive
6,NC(N)=NCC1COc2ccccc2O1 (configuration not stated),inactive
7,Cc1cc(NC(=O)CCCS(=O)(=O)c2nc(-c3cccs3)cc(C(F)(F)F)n2)no1,"inconclusive: 25.1 µM [quencher, side channel, partial curve]"
8,Cc1cccc(/C=N/N(CCO)C2=NS(=O)(=O)c3ccccc32)c1,inactive
9,Nc1c(Br)cc(Br)cc1CNC1CCC(O)CC1 (configuration not stated),inactive
10,Cc1cc(OCCN2CCC(Cc3ccccc3)CC2)ccc1[N+](=O)[O-],inactive
11,O=C(Nc1ccc2ncccc2c1)Nc1ccc2ncccc2c1,"inconclusive: 11.2 µM [fluorescent, side channel, single point]"
12,CC(C)c1nnc(N2C(=O)C(O)=C(C(=O)c3cccs3)C2c2ccccc2)s1 (configuration not stated),"inconclusive: 39.8 µM [fluorescent, side channel, partial curve]"
13,CCC1(C(=O)c2ccccc2)C(c2ccc([N+](=O)[O-])cc2)C1(C(=O)OC)C(=O)OC (configuration not stated),"inconclusive: 35.5 µM [fluorescent, side channel, single point]"
14,Cn1nccc1/C=C(/C#N)S(=O)(=O)c1ccccc1,"inconclusive: 39.8 µM [inhibitor, partial curve]"
15,C=CCn1c(SCc2cccnc2)nnc1-c1ccncc1,inactive
16,COc1ccc(-c2cc(C(=O)Nc3ccc(OC)cc3OC)no2)cc1,inactive
17,CCCS(=O)(=O)c1nc(S(=O)(=O)c2ccc(C)cc2)c(NCc2ccc3c(c2)OCO3)s1,"inconclusive: 89.1 µM [fluorescent, side channel, single point]"
18,O=C(/C=C/Nc1ccccc1O)c1ccco1,inactive
19,Cc1ccccc1-c1nc(CN2CCN(C(=O)c3ccco3)CC2)c(C)o1,"inconclusive: 5.62 µM [fluorescent, side channel, partial curve, poor fit]"
20,CC(C)OCCCNC(=O)c1ccccc1NC(=O)C1=CSCCO1,"inconclusive: 89.1 µM [quencher, side channel, single point]"
21,CCOC(=O)c1ccc(N2NC(=O)/C(=C/c3ccc(OC(=O)c4ccco4)c(OC)c3)C2=O)cc1,"inconclusive: 56.2 µM [inhibitor, single point]"

row,SMILES,Potency
1,COc1cc(/C=c2\sc3nc(=O)c(-c4ccccc4)nn3c2=O)ccc1OCCC(C)C,"inconclusive: 63.1 µM [fluorescent, side channel, single point]"
2,O=c1c2ccccc2nc2n1C(CSCc1ccccc1)CS2 (configuration not stated),"inconclusive: 39.8 µM [fluorescent, side channel, single point]"
3,Cc1c(C(=O)Oc2cccc3cccnc23)cccc1[N+](=O)[O-],inactive
4,Cc1nn(-c2ccccc2)c(Cl)c1/C=C1\SC(=S)N(CCCCCC(=O)O)C1=O,"inconclusive: 35.5 µM [inhibitor, partial curve]"
5,COc1cccc(C(=O)c2c(C)c(CCC#N)n3ccccc23)c1,"inconclusive: 11.2 µM [inhibitor, full curve]"
6,CCOc1ccc(/C=C/C(=O)c2c(O)c3ccccc3oc2=O)cc1,"inconclusive: 3.55 µM [inhibitor, full curve]"
7,CCCn1nc(NC(=O)c2ccco2)c2cc3ccccc3nc21,"inconclusive: 35.5 µM [fluorescent, side channel, partial curve]"
8,O=C(NNc1ccccn1)C(=O)NNS(=O)(=O)c1ccc(Cl)cc1,"inconclusive: 3.55 µM [inhibitor, full curve]"
9,FC(F)(F)c1cc(-c2ccco2)nc(-n2nc(C(F)(F)F)cc2C2CC2)n1,inactive
10,COc1ccccc1N1CCN(CC(=O)c2ccc3ccn(C(C)=O)c3c2)CC1,inactive
11,Cc1nc2ccc(NC(=S)N3CCCC3)cc2nc1C,"inconclusive: 14.1 µM [inhibitor, partial curve]"
12,Cc1ccc(/C=N/Nc2ncc(Cl)cc2Cl)s1,"inconclusive: 7.94 µM [fluorescent, side channel, full curve]"
13,COC(=O)CN1C(=O)N/C(=C/c2ccc(OC)c(C)c2OC)C1=O,"inconclusive: 70.8 µM [fluorescent, side channel, single point]"
14,CCN1CC=C2C(C#N)=C(N)C(C#N)(C#N)[C@H](c3ccoc3)[C@H]2C1,"inconclusive: 35.5 µM [inhibitor, single point]"
15,O=C(Oc1ccc(C(=S)N2CCOCC2)cc1)c1ccccc1[N+](=O)[O-],"inconclusive: 35.5 µM [quencher, side channel, partial curve]"
16,CC1(C)CC(=O)C(C(C2=C(O)CC(C)(C)CC2=O)c2ccc(Br)s2)C(=O)C1 (configuration not stated),"inconclusive: 15.8 µM [inhibitor, partial curve]"
17,CC(CO)NCC12CC3CC(CC(C3)C1)C2 (configuration not stated),"inconclusive: 3.98 µM [inhibitor, full curve]"
18,CC(C)[C@H](NC(=O)C1CCN(S(=O)(=O)c2ccc(F)cc2)CC1)C(=O)N1CCCCCC1,"inconclusive: 63.1 µM [quencher, side channel, single point]"
19,Cc1ccc(-c2cc(C(=O)N/N=C/C(Br)=C/c3ccccc3)n[nH]2)o1,inactive
20,Cc1cccc(C)c1N1CCN(c2cc(Cl)nc(N)n2)CC1,"inconclusive: 12.6 µM [fluorescent, side channel, single point]"
